Results are given in words; binding and its absence hold for the method and conditions named. Some entries that bind do so weakly or less than the wild type. Each block holds one substance with its values, some of them ahead of it.
Columns and labels:
[1] = target: human Tie2 extracellular domain (hTie2 ECD) (human) (UniProt Q02763); assay: SEC-MALS; Superdex 200 Increase 10/300 GL, 0.5 ml/min, room temperature, 20 mM HEPES pH 7.5, 200 mM NaCl (legend: PBS); 3 mg/ml hTie2 Fn2–3, 1 mg/ml all others; both purified
[2] = target: full-length Tie2-GFP D682C/N691C (human) (UniProt Q02763); assay: SEC; fluorescence size-exclusion chromatography (FSEC) of full-length Tie2-GFP solubilised from HEK293F membranes by LMNG-CHS
[3] = target: full-length Tie2-GFP V685D/V687D/K700E (human) (UniProt Q02763); assay: as above

The chains behind the UniProt entries cited, without tags or fusion partners. Where a name states a change or a piece, a line headed by the entry shows the natural chain unless it says otherwise. A line that says so, or that is headed by a name, gives the form on record, which may keep a tag or linker. Residues count along the entry.
human Tie2 extracellular domain (hTie2 ECD) (Q02763, residues 23-735): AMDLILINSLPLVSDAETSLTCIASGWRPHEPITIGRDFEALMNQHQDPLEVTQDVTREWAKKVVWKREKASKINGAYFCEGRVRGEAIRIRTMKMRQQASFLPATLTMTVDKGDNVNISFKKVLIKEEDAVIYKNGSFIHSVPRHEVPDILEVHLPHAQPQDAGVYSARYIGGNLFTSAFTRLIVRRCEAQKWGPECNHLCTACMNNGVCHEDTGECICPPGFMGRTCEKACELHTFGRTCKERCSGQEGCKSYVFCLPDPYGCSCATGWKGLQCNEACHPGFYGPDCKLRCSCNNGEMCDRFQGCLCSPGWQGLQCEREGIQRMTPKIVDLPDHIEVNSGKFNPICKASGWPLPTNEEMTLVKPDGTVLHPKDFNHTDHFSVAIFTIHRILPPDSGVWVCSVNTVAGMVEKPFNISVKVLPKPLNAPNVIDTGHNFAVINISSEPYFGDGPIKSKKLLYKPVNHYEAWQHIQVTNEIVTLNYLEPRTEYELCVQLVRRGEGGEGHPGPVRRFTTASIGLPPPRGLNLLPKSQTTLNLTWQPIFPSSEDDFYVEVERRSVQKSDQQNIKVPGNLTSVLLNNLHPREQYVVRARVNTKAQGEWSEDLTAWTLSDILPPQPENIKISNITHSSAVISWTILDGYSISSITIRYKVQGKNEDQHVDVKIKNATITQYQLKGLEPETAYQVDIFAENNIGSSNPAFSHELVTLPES
full-length Tie2-GFP D682C/N691C (Q02763, form named): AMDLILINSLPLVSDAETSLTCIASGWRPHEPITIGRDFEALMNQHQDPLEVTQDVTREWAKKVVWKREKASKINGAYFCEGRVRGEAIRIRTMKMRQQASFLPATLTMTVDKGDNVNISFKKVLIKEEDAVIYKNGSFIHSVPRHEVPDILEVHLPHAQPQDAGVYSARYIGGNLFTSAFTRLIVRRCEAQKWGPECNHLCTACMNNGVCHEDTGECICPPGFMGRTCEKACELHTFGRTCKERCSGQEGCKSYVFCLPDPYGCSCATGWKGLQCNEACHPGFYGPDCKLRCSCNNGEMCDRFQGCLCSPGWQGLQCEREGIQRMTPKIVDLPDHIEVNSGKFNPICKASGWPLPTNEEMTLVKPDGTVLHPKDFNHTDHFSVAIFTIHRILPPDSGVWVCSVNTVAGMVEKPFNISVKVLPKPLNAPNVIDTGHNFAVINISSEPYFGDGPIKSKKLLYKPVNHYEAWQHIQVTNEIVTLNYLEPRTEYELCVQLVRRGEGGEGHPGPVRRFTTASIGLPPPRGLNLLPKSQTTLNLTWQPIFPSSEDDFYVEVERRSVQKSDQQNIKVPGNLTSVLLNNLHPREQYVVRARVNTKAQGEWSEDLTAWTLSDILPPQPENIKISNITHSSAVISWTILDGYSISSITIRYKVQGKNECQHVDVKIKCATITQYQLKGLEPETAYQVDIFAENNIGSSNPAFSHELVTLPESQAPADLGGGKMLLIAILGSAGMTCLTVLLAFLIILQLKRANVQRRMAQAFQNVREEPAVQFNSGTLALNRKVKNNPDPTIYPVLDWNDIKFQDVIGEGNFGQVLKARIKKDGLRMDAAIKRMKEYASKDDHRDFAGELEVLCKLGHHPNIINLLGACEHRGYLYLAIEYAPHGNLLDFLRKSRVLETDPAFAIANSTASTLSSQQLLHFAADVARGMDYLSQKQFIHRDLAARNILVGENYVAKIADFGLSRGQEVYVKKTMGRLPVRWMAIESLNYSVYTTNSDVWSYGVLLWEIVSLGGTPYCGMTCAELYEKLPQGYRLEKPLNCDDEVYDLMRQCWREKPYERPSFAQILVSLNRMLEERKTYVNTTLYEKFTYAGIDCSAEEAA
full-length Tie2-GFP V685D/V687D/K700E (Q02763, form named): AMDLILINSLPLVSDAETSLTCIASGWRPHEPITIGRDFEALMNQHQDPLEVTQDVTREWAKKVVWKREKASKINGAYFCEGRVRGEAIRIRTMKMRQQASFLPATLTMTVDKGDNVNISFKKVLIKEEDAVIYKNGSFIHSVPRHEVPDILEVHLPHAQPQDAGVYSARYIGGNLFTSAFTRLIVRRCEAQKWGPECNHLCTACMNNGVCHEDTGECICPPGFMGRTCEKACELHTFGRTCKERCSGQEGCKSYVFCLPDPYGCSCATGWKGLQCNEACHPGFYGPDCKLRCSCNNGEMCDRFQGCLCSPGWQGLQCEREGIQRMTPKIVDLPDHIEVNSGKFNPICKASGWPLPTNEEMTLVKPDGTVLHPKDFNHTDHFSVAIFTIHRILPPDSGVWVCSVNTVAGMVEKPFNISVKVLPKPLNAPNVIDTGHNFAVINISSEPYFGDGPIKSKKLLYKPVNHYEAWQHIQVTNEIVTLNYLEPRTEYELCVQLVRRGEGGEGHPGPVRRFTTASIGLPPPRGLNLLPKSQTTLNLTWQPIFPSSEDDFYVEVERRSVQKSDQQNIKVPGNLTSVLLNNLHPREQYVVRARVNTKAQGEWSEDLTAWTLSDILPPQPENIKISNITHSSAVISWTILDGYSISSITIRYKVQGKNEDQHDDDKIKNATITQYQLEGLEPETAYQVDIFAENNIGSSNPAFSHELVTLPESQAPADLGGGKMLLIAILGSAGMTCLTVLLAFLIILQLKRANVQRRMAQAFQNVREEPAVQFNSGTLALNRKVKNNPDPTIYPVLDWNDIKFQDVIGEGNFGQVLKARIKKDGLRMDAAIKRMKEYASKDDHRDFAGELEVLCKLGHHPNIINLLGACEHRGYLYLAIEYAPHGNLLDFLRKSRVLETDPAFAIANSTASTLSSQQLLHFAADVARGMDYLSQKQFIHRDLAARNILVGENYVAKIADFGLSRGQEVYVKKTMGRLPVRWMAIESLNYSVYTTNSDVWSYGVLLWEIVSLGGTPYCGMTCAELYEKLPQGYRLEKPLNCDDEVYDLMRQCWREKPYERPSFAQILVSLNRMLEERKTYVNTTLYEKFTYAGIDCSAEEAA

binding [1]: no binding (tested: 1 mg/ml)
Substance: human Tie2 extracellular domain (hTie2 ECD) (from UniProt Q02763 23-735) (domain or fragment)

binding [2]: binds
Substance: full-length Tie2-GFP D682C/N691C (from UniProt Q02763 23-1124) (receptor)

binding [3]: no binding
Substance: full-length Tie2-GFP V685D/V687D/K700E (from UniProt Q02763 23-1124) (receptor)

Source: article PMC8560823, “Structural insights into the clustering and activation of Tie2 receptor mediated by Tie2 agonistic antibody” (Nature Communications, 2021)
